Results are given in words; binding and its absence hold for the method and conditions named. In cells and extracts the contact can be indirect. A yes stands for co-enrichment or nearness to the bait. Other partners may have been found.
Assays:
[1] = molecular target: T1, isocitrate dehydrogenase (IDH) subunit IDH1 (Arabidopsis thaliana) (UniProt Q8LFC0); experiment: affinity purification with mass spectrometry + split reporter + two-hybrid; compromise score that integrates the AP-MS, split-LUC and Y2H data of the 38 x 38 screen (STATIS-like); interaction: compromise score above the threshold of about 0.6
T1 sequence: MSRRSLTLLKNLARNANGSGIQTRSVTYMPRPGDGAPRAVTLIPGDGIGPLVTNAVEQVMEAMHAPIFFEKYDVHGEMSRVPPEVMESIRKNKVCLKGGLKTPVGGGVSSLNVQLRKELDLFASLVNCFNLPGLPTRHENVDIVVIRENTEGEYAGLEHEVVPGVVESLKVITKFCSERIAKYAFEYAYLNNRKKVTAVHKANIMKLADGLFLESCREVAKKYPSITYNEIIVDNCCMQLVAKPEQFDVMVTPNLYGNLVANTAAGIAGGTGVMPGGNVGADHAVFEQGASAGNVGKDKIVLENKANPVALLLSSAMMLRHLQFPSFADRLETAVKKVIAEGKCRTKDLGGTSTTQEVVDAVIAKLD

[2] = molecular target: T2, isocitrate dehydrogenase (IDH) subunit IDH2 (Arabidopsis thaliana) (UniProt P93032); experiment: as above
T2 sequence: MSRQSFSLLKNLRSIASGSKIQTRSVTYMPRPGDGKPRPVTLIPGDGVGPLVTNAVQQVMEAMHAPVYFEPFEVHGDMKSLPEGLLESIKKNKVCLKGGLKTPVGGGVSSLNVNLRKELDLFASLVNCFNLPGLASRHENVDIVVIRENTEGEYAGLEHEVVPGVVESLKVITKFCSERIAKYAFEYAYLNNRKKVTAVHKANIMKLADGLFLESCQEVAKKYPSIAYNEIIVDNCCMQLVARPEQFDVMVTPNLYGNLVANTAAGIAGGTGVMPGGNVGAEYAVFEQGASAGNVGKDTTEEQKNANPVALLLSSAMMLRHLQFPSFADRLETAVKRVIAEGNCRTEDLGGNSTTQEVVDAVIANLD

[3] = molecular target: T3, aconitase 3 (ACO3) (Arabidopsis thaliana) (UniProt Q9SIB9); experiment: affinity purification with mass spectrometry; C-terminal GFP-tagged bait expressed in PSB-D Arabidopsis cell culture; extract (25 mM Tris-HCl pH 7.5, 15 mM MgCl2, 5 mM EGTA, 0.1% NP40) on GFP-Trap_A beads 1 h at 4 °C, washes with 0, 250 and 500 mM NaCl; LC-MS/MS, FC-A score (SAINT); positive: top 10% of scores (3.9)
T3 sequence: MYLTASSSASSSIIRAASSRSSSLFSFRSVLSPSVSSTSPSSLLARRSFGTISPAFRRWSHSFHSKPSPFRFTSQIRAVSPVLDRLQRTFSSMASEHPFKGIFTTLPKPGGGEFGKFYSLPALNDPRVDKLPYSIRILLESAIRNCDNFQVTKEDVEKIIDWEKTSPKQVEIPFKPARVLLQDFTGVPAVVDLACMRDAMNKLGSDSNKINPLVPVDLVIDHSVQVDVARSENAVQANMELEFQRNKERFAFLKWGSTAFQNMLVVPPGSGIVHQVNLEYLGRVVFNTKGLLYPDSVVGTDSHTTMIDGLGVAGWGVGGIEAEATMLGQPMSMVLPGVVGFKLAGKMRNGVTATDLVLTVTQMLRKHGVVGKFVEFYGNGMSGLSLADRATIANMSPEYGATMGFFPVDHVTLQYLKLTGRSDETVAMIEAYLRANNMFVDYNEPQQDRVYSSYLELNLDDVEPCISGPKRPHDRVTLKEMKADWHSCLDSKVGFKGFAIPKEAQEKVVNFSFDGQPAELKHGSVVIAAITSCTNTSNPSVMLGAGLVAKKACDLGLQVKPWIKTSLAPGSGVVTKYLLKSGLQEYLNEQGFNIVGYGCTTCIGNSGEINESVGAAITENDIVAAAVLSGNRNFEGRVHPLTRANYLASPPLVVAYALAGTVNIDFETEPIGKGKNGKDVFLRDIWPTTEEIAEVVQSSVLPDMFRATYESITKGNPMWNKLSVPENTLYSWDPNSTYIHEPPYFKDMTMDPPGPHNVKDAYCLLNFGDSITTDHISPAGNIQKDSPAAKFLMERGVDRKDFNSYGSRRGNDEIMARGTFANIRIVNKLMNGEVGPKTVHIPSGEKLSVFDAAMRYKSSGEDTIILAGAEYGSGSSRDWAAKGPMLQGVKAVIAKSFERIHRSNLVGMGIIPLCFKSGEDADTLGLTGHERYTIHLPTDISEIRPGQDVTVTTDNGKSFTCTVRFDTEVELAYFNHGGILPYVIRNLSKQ

[4] = molecular target: T4, aconitase 2 (ACO2) (Arabidopsis thaliana) (UniProt Q94A28); experiment: affinity purification with mass spectrometry + split reporter + two-hybrid; compromise score that integrates the AP-MS, split-LUC and Y2H data of the 38 x 38 screen (STATIS-like); interaction: compromise score above the threshold of about 0.6
T4 sequence: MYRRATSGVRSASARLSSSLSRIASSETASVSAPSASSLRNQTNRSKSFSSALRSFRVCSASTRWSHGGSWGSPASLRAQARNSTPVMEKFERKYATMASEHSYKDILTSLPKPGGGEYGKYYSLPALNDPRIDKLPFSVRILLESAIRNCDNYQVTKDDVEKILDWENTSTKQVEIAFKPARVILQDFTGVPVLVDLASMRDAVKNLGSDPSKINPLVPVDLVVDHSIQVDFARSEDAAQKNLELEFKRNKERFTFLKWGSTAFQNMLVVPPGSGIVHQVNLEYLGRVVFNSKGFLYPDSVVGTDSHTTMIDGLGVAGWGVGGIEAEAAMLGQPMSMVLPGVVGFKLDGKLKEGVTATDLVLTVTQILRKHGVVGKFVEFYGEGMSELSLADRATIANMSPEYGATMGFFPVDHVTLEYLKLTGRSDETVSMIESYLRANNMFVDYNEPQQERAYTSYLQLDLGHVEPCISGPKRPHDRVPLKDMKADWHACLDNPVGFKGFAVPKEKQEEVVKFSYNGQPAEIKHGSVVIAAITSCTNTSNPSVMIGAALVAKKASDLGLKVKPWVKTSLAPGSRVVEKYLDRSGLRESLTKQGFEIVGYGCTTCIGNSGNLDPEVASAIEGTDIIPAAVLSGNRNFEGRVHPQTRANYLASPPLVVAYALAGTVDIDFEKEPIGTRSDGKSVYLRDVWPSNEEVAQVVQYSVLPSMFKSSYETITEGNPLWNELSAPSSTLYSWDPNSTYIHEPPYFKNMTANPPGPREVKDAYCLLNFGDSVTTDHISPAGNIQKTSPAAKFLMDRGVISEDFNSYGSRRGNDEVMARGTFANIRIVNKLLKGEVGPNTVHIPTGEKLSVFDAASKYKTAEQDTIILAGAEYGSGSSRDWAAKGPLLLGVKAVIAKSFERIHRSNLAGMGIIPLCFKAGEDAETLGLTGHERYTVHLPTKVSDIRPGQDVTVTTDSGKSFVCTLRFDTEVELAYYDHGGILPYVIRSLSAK

[5] = molecular target: T3, aconitase 3 (ACO3) (Arabidopsis thaliana); experiment: as above
[6] = molecular target: T5, lipoamide dehydrogenase (LPD) 2 (Arabidopsis thaliana) (UniProt Q9M5K2); experiment: as above
T5 sequence: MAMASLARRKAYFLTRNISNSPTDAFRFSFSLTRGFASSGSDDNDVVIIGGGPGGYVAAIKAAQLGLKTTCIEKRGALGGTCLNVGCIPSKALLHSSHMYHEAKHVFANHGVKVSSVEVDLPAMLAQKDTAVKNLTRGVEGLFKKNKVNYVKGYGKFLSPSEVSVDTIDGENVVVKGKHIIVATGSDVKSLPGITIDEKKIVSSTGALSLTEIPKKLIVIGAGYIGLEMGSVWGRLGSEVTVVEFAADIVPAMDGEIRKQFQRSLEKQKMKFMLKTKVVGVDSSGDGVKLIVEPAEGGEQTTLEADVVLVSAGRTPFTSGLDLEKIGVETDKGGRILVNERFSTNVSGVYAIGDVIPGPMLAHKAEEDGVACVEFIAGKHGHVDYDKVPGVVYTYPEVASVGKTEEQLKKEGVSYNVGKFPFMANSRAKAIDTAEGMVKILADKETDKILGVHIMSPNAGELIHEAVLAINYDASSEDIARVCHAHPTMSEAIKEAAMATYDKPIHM

[7] = molecular target: oxoglutarate dehydrogenase complex (ODC) subunit ODC2-1 (Arabidopsis thaliana); experiment: as above

Measured: binding

B1: aconitase 2 (ACO2) (enzyme, UniProt Q94A28 1-995)
chain: MYRRATSGVRSASARLSSSLSRIASSETASVSAPSASSLRNQTNRSKSFSSALRSFRVCSASTRWSHGGSWGSPASLRAQARNSTPVMEKFERKYATMASEHSYKDILTSLPKPGGGEYGKYYSLPALNDPRIDKLPFSVRILLESAIRNCDNYQVTKDDVEKILDWENTSTKQVEIAFKPARVILQDFTGVPVLVDLASMRDAVKNLGSDPSKINPLVPVDLVVDHSIQVDFARSEDAAQKNLELEFKRNKERFTFLKWGSTAFQNMLVVPPGSGIVHQVNLEYLGRVVFNSKGFLYPDSVVGTDSHTTMIDGLGVAGWGVGGIEAEAAMLGQPMSMVLPGVVGFKLDGKLKEGVTATDLVLTVTQILRKHGVVGKFVEFYGEGMSELSLADRATIANMSPEYGATMGFFPVDHVTLEYLKLTGRSDETVSMIESYLRANNMFVDYNEPQQERAYTSYLQLDLGHVEPCISGPKRPHDRVPLKDMKADWHACLDNPVGFKGFAVPKEKQEEVVKFSYNGQPAEIKHGSVVIAAITSCTNTSNPSVMIGAALVAKKASDLGLKVKPWVKTSLAPGSRVVEKYLDRSGLRESLTKQGFEIVGYGCTTCIGNSGNLDPEVASAIEGTDIIPAAVLSGNRNFEGRVHPQTRANYLASPPLVVAYALAGTVDIDFEKEPIGTRSDGKSVYLRDVWPSNEEVAQVVQYSVLPSMFKSSYETITEGNPLWNELSAPSSTLYSWDPNSTYIHEPPYFKNMTANPPGPREVKDAYCLLNFGDSVTTDHISPAGNIQKTSPAAKFLMDRGVISEDFNSYGSRRGNDEVMARGTFANIRIVNKLLKGEVGPNTVHIPTGEKLSVFDAASKYKTAEQDTIILAGAEYGSGSSRDWAAKGPLLLGVKAVIAKSFERIHRSNLAGMGIIPLCFKAGEDAETLGLTGHERYTVHLPTKVSDIRPGQDVTVTTDSGKSFVCTLRFDTEVELAYYDHGGILPYVIRSLSAK
binds: [1] | [2] | [3]

B2: citrate synthase (CSY) 4 (enzyme, UniProt P20115 1-474)
chain: MVFFRSVSAFTRLRSRVQGQQSSLSNSVRWIQMQSSTDLDLKSQLQELIPEQQDRLKKLKSEHGKVQLGNITVDMVIGGMRGMTGLLWETSLLDPEEGIRFRGLSIPECQKVLPTAQSGAEPLPEGLLWLLLTGKVPSKEQVEALSKDLANRAAVPDYVYNAIDALPSTAHPMTQFASGVMALQVQSEFQKAYENGIHKSKFWEPTYEDCLNLIARVPVVAAYVYRRMYKNGDSIPSDKSLDYGANFSHMLGFDDEKVKELMRLYITIHSDHEGGNVSAHTGHLVGSALSDPYLSFAAALNGLAGPLHGLANQEVLLWIKSVVEECGEDISKEQLKEYVWKTLNSGKVIPGYGHGVLRNTDPRYVCQREFALKHLPDDPLFQLVSKLYEVVPPVLTELGKVKNPWPNVDAHSGVLLNHYGLTEARYYTVLFGVSRSLGICSQLIWDRALGLALERPKSVTMDWLEAHCKKASSA
binds: [4] | [5] | [1] | [2]

B3: isocitrate dehydrogenase (IDH) subunit IDH2 (protein, UniProt P93032 1-367)
chain: MSRQSFSLLKNLRSIASGSKIQTRSVTYMPRPGDGKPRPVTLIPGDGVGPLVTNAVQQVMEAMHAPVYFEPFEVHGDMKSLPEGLLESIKKNKVCLKGGLKTPVGGGVSSLNVNLRKELDLFASLVNCFNLPGLASRHENVDIVVIRENTEGEYAGLEHEVVPGVVESLKVITKFCSERIAKYAFEYAYLNNRKKVTAVHKANIMKLADGLFLESCQEVAKKYPSIAYNEIIVDNCCMQLVARPEQFDVMVTPNLYGNLVANTAAGIAGGTGVMPGGNVGAEYAVFEQGASAGNVGKDTTEEQKNANPVALLLSSAMMLRHLQFPSFADRLETAVKRVIAEGNCRTEDLGGNSTTQEVVDAVIANLD
binds: [6] | [7]
